# According to the supplement of paper PMC10735217:
# The list shows a part of the results. This data set is noisy: repeats of one test often differ as much as different tests do.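 In a drug-repurposing library screen, luminescence reads luciferase driven by eight TEAD-binding elements, stably integrated into human kidney-derived cells. Compounds scoring over five robust Z scores above the plate mean are called hits.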
# Tested on: HEK293A TEAD-LUC reporter
# Experiment: TEAD-luciferase reporter activity (YAP activation), robust Z score vs plate; higher = stronger YAP/TEAD activation
# Settings: 24 h
Compound,TEAD-luciferase reporter activity (compound concentration: 200 nM),TEAD-luciferase reporter activity (compound concentration: 2 uM),TEAD-luciferase reporter activity (compound concentration: 10 uM)
NCc1cccc(C2CCN(C(=O)c3ccc(C#Cc4ccccc4F)o3)CC2)c1,inactive: 0.179,inactive: 2.59,inactive: -0.83
COc1cc2nc(C(C)(C)C)sc2cc1NC(=S)SCCC(=O)O,inactive: -1.43,inactive: -0.988,inactive: 0.809
"O=C1C(=O)c2ncccc2-c2cccnc21 [phanqui, Gerolymatos]",inactive: 1.17,–,–
"O=C1C(=O)c2ncccc2-c2cccnc21 [phanqui  , Gerolymatos]",–,–,inactive: 0.278
O=C1C(=O)c2ncccc2-c2cccnc21 [phanqui],–,inactive: -2.38,–
Cc1cccc(B(O)O)c1C,inactive: 0.102,inactive: -0.203,inactive: -1.17
O=C1COc2ccccc2C(=O)N1CCCCN1CCN(c2ncccn2)CC1,inactive: -1.2,inactive: 0.381,inactive: -2.46
CNS(=O)(=O)Cc1ccc2[nH]cc(CCN(C)C)c2c1,inactive: -1.04,–,inactive: -1.97
CNS(=O)(=O)Cc1ccc2[nH]cc(CCN(C)C)c2c1 [sumatriptan],–,inactive: -0.0999,–
CCOC(=O)c1cn2c(C)c(CC)c(OC)nc2n1,inactive: 0.64,inactive: -0.803,inactive: -0.832
N[C@@H](CCC(=O)N[C@@H](CS)C(=O)NCC(=O)O)C(=O)O,inactive: 0.834,inactive: -0.572,inactive: 0.95
CC1=C(/C=C/C#Cc2ccc(C(=O)O)cc2)C(C)(C)CCC1,inactive: 0.067,inactive: 1.51,inactive: -1.52
C[C@@H]1COCCN1c1cc(C2([S@](C)(=N)=O)CC2)nc(-c2ccnc3[nH]ccc23)n1,inactive: -0.331,inactive: 0.155,inactive: 1.21
Nc1ccc(/C=C/C(=O)NC[C@@H]2CN(c3ccc(N4CCOCC4)c(F)c3)C(=O)O2)cc1,inactive: 0.74,inactive: 0.923,inactive: 0.545
CCC(c1ccc(O)c(F)c1)C(C)c1ccc(O)c(F)c1 (stereo not given),inactive: -0.837,inactive: -0.268,inactive: 1.26
COc1ccc(C)cc1NC(=O)CCN1CC(N2CCCCC2C)C1 (stereo not given),inactive: 2.81,inactive: -0.888,inactive: -0.726
O=C1NCCN1CCN1CCN(C2C[C@H](c3ccc(F)cc3)c3ccccc32)CC1 (stereo not given in full),inactive: -1.2,inactive: -0.41,inactive: 0.934
Cc1noc2c1-c1ccccc1C(c1ccc(Cl)cc1)=N[C@H]2CC(N)=O,inactive: 1.63,inactive: 2.42,inactive: 2.21
CCCN1CCC2(CCN(C(C)=O)CC2)Oc2ccccc21,inactive: 3,–,inactive: 0.0877
CCOc1ccccc1OCC1CNCCO1 (stereo not given) [viloxazine ER],–,inactive: -0.383,–
"CCOc1ccccc1OCC1CNCCO1 (stereo not given) [viloxazine ER, Supernus Pharmaceuticals]",inactive: 1.63,–,inactive: -1.48

# Some of the entries so far, bar-delimited.
Compound | TEAD-luciferase reporter activity (compound concentration: 200 nM) | TEAD-luciferase reporter activity (compound concentration: 2 uM) | TEAD-luciferase reporter activity (compound concentration: 10 uM)
Cc1cccc(B(O)O)c1C | inactive: 0.102 | inactive: -0.203 | inactive: -1.17
O=C1COc2ccccc2C(=O)N1CCCCN1CCN(c2ncccn2)CC1 | inactive: -1.2 | inactive: 0.381 | inactive: -2.46
CNS(=O)(=O)Cc1ccc2[nH]cc(CCN(C)C)c2c1 | inactive: -1.04 | – | inactive: -1.97
CNS(=O)(=O)Cc1ccc2[nH]cc(CCN(C)C)c2c1 [sumatriptan] | – | inactive: -0.0999 | –
CCOC(=O)c1cn2c(C)c(CC)c(OC)nc2n1 | inactive: 0.64 | inactive: -0.803 | inactive: -0.832
N[C@@H](CCC(=O)N[C@@H](CS)C(=O)NCC(=O)O)C(=O)O | inactive: 0.834 | inactive: -0.572 | inactive: 0.95
CC1=C(/C=C/C#Cc2ccc(C(=O)O)cc2)C(C)(C)CCC1 | inactive: 0.067 | inactive: 1.51 | inactive: -1.52
C[C@@H]1COCCN1c1cc(C2([S@](C)(=N)=O)CC2)nc(-c2ccnc3[nH]ccc23)n1 | inactive: -0.331 | inactive: 0.155 | inactive: 1.21
Nc1ccc(/C=C/C(=O)NC[C@@H]2CN(c3ccc(N4CCOCC4)c(F)c3)C(=O)O2)cc1 | inactive: 0.74 | inactive: 0.923 | inactive: 0.545
CCC(c1ccc(O)c(F)c1)C(C)c1ccc(O)c(F)c1 (stereo not given) | inactive: -0.837 | inactive: -0.268 | inactive: 1.26
COc1ccc(C)cc1NC(=O)CCN1CC(N2CCCCC2C)C1 (stereo not given) | inactive: 2.81 | inactive: -0.888 | inactive: -0.726

# (further entries)

Compound,TEAD-luciferase reporter activity (compound concentration: 200 nM),TEAD-luciferase reporter activity (compound concentration: 2 uM),TEAD-luciferase reporter activity (compound concentration: 10 uM)
O=C(NC1CCN(Cc2ccc3c(c2)OCO3)CC1)c1cc(=O)c2cc(F)ccc2o1,inactive: -0.696,inactive: -0.44,inactive: 0.556
Cc1c(Cl)cccc1Nc1ncccc1C(=O)O [lysine clonixinate],inactive: -0.197,inactive: -1.09,inactive: 1.97
COCCOc1ccc(N2CCN(CCn3ncc4c3nc(N)n3nc(-c5ccco5)nc43)CC2)cc1 [Preladenant],inactive: -0.688,inactive: -0.601,inactive: -1.38
CN/C(=N\S(=O)(=O)N1CCCCC1)N1C[C@H](c2ccccc2)C(c2ccc(Cl)cc2)=N1,inactive: 3.05,inactive: -0.125,inactive: 1.28
Cn1cc(O)nc1NC(=O)Nc1cccc(Cl)c1 [fenobam],inactive: 2.26,inactive: -0.386,inactive: 3.63
Nc1nc(=O)c2[nH]cc(Cc3cccnc3)c2[nH]1 [Peldesine],inactive: -0.471,–,inactive: -0.0172
COCC(COC)Nc1nc(C)nc2c(-c3ccc(Cl)cc3Cl)c(C)nn12,inactive: -2.24,inactive: -1.34,inactive: -0.403
O=C(O)[C@H](CC(=O)N1C[C@H]2CCCC[C@H]2C1)Cc1ccccc1 [mitiglinide],inactive: -0.782,inactive: 0.699,inactive: 1.22
CCc1oc(-c2ccc(OC)cc2)nc1CCOc1ccc2c(c1)CCC2CC(=O)O (stereo not given),inactive: -1.34,inactive: -0.163,inactive: 0.0382
COc1ccc(C(=O)Nc2cc(Cl)cnc2Cl)c2cccnc12,inactive: 3.39,inactive: -0.387,inactive: 2.81
CCCCOCC(O)COc1ccccc1 (stereo not given) [febuprol],inactive: 0.297,inactive: -2.07,inactive: 0.0495
CN(C)N=Nc1nc2c(c(=O)n(C)c(=O)n2C)n1C,inactive: -1.87,inactive: -0.812,inactive: 1.34
CN1CCc2cc(Cl)c(O)cc2[C@@H](c2cccc3c2OCC3)C1 [Odapipam acetate],inactive: 3.1,inactive: 0.529,inactive: 0.452
Cc1ccc(-n2nc(C(C)(C)C)cc2NC(=O)NCc2cc(F)ccc2Oc2ccc3c(cnn3CCO)c2)cc1,–,inactive: -1.1,–
Cc1ccc(-n2nc(C(C)(C)C)cc2NC(=O)NCc2cc(F)ccc2Oc2ccc3c(cnn3CCO)c2)cc1 [Pexmetinib],inactive: -0.3,inactive: -0.982,inactive: -1.55
O=C(NCCNC(=O)c1ccccn1)c1ccc(-c2cncnc2)cc1,inactive: -0.16,–,inactive: 1.72
CCCCCN(CCCOC)C(=O)C(CCC(=O)O)CS(=O)(=O)c1ccc2ccccc2c1 (stereo not given),inactive: 1.25,inactive: 0.0879,inactive: 0.0116
O=C([C@@H](O)CO)N1CC=C(c2c(F)cc(N3C[C@H](COc4ccon4)OC3=O)cc2F)CC1,inactive: -2.02,–,inactive: -0.00807
C[C@@H]1C[C@H]2O[C@@H]2/C=C\C=C\C(=O)Cc2c(Cl)c(O)cc(O)c2C(=O)O1 [Radicicol],inactive: -0.203,inactive: 3.25,inactive: -0.00193
COc1ccc(-c2nc3c4ccccc4ccc3n2C(C)C)cc1,inactive: -0.101,inactive: 1.81,inactive: 0.916
O=C(CCCCCCC(=O)Nc1cccnc1)NO [pyroxamide],–,inactive: 4.61,–

Compound,TEAD-luciferase reporter activity (compound concentration: 200 nM),TEAD-luciferase reporter activity (compound concentration: 2 uM),TEAD-luciferase reporter activity (compound concentration: 10 uM)
"O=C(CCCCCCC(=O)Nc1cccnc1)NO [pyroxamide, Aton Pharma]",inactive: -0.0364,–,inactive: 0.607
Cc1nc2cnccc2n1CC1CCN(C(=O)CC(c2ccccc2)c2ccccc2)CC1,inactive: -1.33,inactive: -1.35,inactive: 0.522
O=C(Cc1ccc(F)cc1)N1CCC(C(=O)N2CCC(c3ccccc3)CC2)CC1,inactive: -1.47,–,inactive: 2.32
CN1CCN(CCOc2cc(OC3CCOCC3)c3c(Nc4c(Cl)ccc5c4OCO5)ncnc3c2)CC1 [saracatinib],inactive: 0.0164,inactive: -2.16,inactive: -1.82
c1ccc(-c2nnc(O[C@@H]3[C@@H]4C[C@@H]5C[C@H]3CN(C5)C4)s2)cc1 [Nelonicline],inactive: -0.245,inactive: -0.182,inactive: 0.0739
O=C(Nc1ccc(Cl)c2ccccc12)C1CCN(C(=O)Cn2c(=O)sc3ccc(Cl)cc32)CC1,inactive: -1.16,inactive: 0.434,inactive: 1.22
CCOP(=O)(CCCCCCOc1ccc(OC)cc1Cl)OCC,inactive: -0.291,inactive: -0.792,inactive: 0.156
CC(C)NS(=O)(=O)CCN1C(=O)c2ccccc2C1=O [taltrimide],inactive: -1.51,inactive: -0.134,inactive: -2
CC(=O)O[C@]1(C(C)=O)CCC2C3C=C(Cl)C4=CC(=O)CCC4(C)C3CCC21C (stereo not given in full),inactive: 0.0871,–,inactive: -2.24
CC(=O)O[C@]1(C(C)=O)CCC2C3C=C(Cl)C4=CC(=O)CCC4(C)C3CCC21C (stereo not given in full) [Chlormadi    acetate],–,inactive: -0.879,–
CN(C(=O)CO/N=C(/c1ccccc1)c1ccc2c(c1)CN1CC(=O)NC1=N2)C1CCCCC1,inactive: -1.08,inactive: -0.247,inactive: 0.158
Cn1c(=O)c2c(nc(CCN3CCNCC3)n2C)n(C)c1=O,inactive: 0.215,inactive: 1.66,inactive: 1.91
CCCCc1oc2ccc(C(=O)OC(C)C)cc2c1C(=O)c1ccc(CCCN(CCCC)CCCC)cc1,inactive: -0.379,inactive: 0.671,inactive: 1.82
"O=C(OOC(=O)c1ccccc1)c1ccccc1 [benzoyl peroxide, Advanced]",inactive: -0.571,inactive: -1.36,inactive: -0.682
O=S(=O)([O-])O/N=C1\CCn2c(C3CCCCC3)nc3c(Cl)ccc1c32,inactive: -0.945,inactive: -1.11,inactive: -0.584
CCc1nc(N)nc(N)c1-c1ccc(Cl)cc1 [pyrimethamine],–,inactive: 1.2,–
CCc1nc(N)nc(N)c1-c1ccc(Cl)cc1 [Pyrimethamine58-14-0],inactive: 0.321,–,inactive: 0.566
CC(C)C(CO)NS(=O)(=O)c1ccc(Cl)s1 (stereo not given),inactive: 0.668,inactive: -0.776,inactive: -0.163
Fc1ccc2c(c1)[C@H](OCc1c(F)cccc1F)[C@@H](Cn1ccnc1)S2,inactive: 1.07,inactive: 0.98,inactive: -1.82
